Measured values reported in the supplement of paper PMC5949888.
Most values lie at the floor of the assay. Slopes are relative: functional sequences can read slightly below zero.

test system: Saccharomyces cerevisiae PS128 hsf1 delta, HSF1(1-493) fusion; test: growth estimate (transactivation domain function in HSF1 fusion, heat-shock survival) (a.u. (slope of normalised read count over time)); higher = stronger growth at 37°C, i.e. more transactivation activity; conditions: library: random library

| Substance | growth estimate |
| --- | --- |
| TKRVLSYGVTFVKCLQRVVG | < -0.25 |
| VRGVQ | < -0.25 |
| AVSGATKEL | < -0.25 |
| SDLPCNPGIRRSGINHGHFR | < -0.25 |
| CRSNWHCQRQRRKVIISARN | < -0.25 |
| SNVRACAIKPAGSCDPPANT | < -0.25 |
| YGRLLGFGRREITAKCRDRR | < -0.25 |
| VGVGNTR | < -0.25 |
| CTVRPVPMVRYTTAL | < -0.25 |
| QQG | < -0.25 |
| FASSPGHALAEYRP | < -0.25 |
| RSTSA | < -0.25 |
| KMPIDQRSNVMMEHSRETKS | < -0.25 |
| QAGLIRRQAIVRAATLG | < -0.25 |
| GLIARTLSHGWRCQWLLRVA | < -0.25 |
| LSSSFSMGSGICMLGTRNTN | < -0.25 |
| RGIRVIPLAM | < -0.25 |
| RQPRRPM | < -0.25 |
| WRCATWVNIHGPRRFRSRPN | -0.0768 |
| VLLLIFDFIKTWV | < -0.25 |
| LPLDGLCSRSVARELETIWC | < -0.25 |
| WPAVVIVPEQVLSCQGSRSQ | < -0.25 |
| IPMKQGLEASGGVPKAAAS | < -0.25 |

| Substance | growth estimate |
| --- | --- |
| LIR | < -0.25 |
| VLISFCDGSRVS | < -0.25 |
| TVPRKTKKKAAEEISGRGPR | < -0.25 |
| LRTENG | < -0.25 |
| GKSLIRVLGLRLS | < -0.25 |
| EIIVGIVRPVEATSFRHRDA | < -0.25 |
| AGTSPR | < -0.25 |
| TEKQELQVVVVAWCG | < -0.25 |
| QILGGVGAL | < -0.25 |
| FPL | < -0.25 |
| SLLASGQCISLVRSHA | < -0.25 |
| SAWIFARVNTIESWLSVQPF | < -0.25 |
| ERGSTQHRIQYTTWCQTSRR | < -0.25 |
| KQGYRSE | < -0.25 |
| YSVEMLQTRLPCCAKRCPLR | < -0.25 |
| FLFAPTLA | -0.243 |
| SSYPEKGQKT | < -0.25 |
| CRFR | < -0.25 |
| SGPEVSRLLSM | -0.25 |
| GCVQRTLL | < -0.25 |
| WDLADPISSQHILHRALAKP | < -0.25 |
| AVATAGGLLGSGSRATSAVS | < -0.25 |
| VRTSIQGLSGRNSASSGGSD | < -0.25 |

| Substance | growth estimate |
| --- | --- |
| SHGGVNGL | < -0.25 |
| GTTGDGARSGA | < -0.25 |
| VGTYGRG | < -0.25 |
| VIGYIRTWALTAYPSTIAVG | < -0.25 |
| TLLHAGV | < -0.25 |
| RYICPGTIS | < -0.25 |
| RRHSL | < -0.25 |
| GQENAGQKPGP | < -0.25 |
| AVSPSG | < -0.25 |
| LRPHEGHRLAHPTLSNHLCI | < -0.25 |
| RAISGQLMIRYAT | < -0.25 |
| QVLDPRLVG | < -0.25 |
| SKYCRPNSLSLRMKGRRW | < -0.25 |
| DLSPTITRCMPGQINTPYLA | < -0.25 |
| DLCA | < -0.25 |
| HNFKGTG | < -0.25 |
| PAKDRKIFGESCGHASSVVL | < -0.25 |
| VHVTFVN | < -0.25 |
| GPKAIAMEQRRDGSKTEWCA | < -0.25 |
| FIMNGSPVSDYWAEAADSRR | < -0.25 |
| ISYCSQAETGSAVSMPLSRG | < -0.25 |
| VCGNK | < -0.25 |
| CVQICRRNEIS | < -0.25 |

As a short view, some entries already given:

| Substance | growth estimate |
| --- | --- |
| EIIVGIVRPVEATSFRHRDA | < -0.25 |
| AGTSPR | < -0.25 |
| TEKQELQVVVVAWCG | < -0.25 |
| QILGGVGAL | < -0.25 |

More entries follow:

| Substance | growth estimate |
| --- | --- |
| GNRLSIAAFEFGFVGA | < -0.25 |
| RCTCPGVCLRRVGDSQKGHA | < -0.25 |
| LVSRRRPREAQASTQMVRLT | < -0.25 |
| LIGITSPGC | < -0.25 |
| RIDVLVFDQGIVLRGL | < -0.25 |
| LGLAIEFGCGGFAGTYRSLV | < -0.25 |
| LVEGSVLTVSRNISYSGFEL | < -0.25 |
| LISLQQ | < -0.25 |
| RAKFGIRTAISDEGWTAQNS | < -0.25 |
| YSGRCEMKHTRLQA | < -0.25 |
| DPTYPNNVGRSRAVQAVIFL | < -0.25 |
| WFSPSPSPSIGGR | < -0.25 |
| AEVVRQYGVKDATTKDLLAG | < -0.25 |
| QLGMV | < -0.25 |
| PNGLFSHGEGHAVTESNGST | < -0.25 |
| NQSRPVYLRQGPHCT | < -0.25 |
| HHQNEAHVP | < -0.25 |
| NCFVGSMIVALAESPPIKTP | < -0.25 |
| HCSRRRVGFRRCPQNRHKSP | < -0.25 |
| CGSVKSTPSDTTSCGVQAAP | < -0.25 |
| CEESTSCMARCECEPLMRNG | < -0.253 |
| HTAYNPYRALAGTSWLKQPK | < -0.25 |
| DLPQPKP | < -0.25 |

| Substance | growth estimate |
| --- | --- |
| DWRSTQPHGILLSANSDPCP | < -0.25 |
| YVHDAVPRTTISLAAHINVV | < -0.25 |
| RVDSTYLECRYAGIPRPRLG | < -0.25 |
| NCAEDKLVVLRVPTGRGIRS | < -0.25 |
| PALATRVQDSQRASVGCA | < -0.25 |
| AEFASHSGKRLWASAARTTA | < -0.25 |
| VAGIGQGFAREIIDA | < -0.25 |
| TYRPSVRGSSWEGVSNLHRL | < -0.25 |
| GRQVGISPCAG | < -0.25 |
| PPT | < -0.25 |
| GQENVSFMCKL | < -0.25 |
| KVYPNGWRFPGENRRHGRRP | < -0.25 |
| SGLG | < -0.25 |
| ACA | < -0.25 |
| VARSSFACVSMYTRPLNDCY | < -0.25 |
| GCPRHRK | < -0.25 |
| EVIGGPKVFH | < -0.25 |
| WVRDFSRCIRAASTATPVA | < -0.25 |
| KSELDIAEQFDTNTVASGDV | < -0.25 |
| GSEEV | < -0.25 |
| VCFTLPAMEFIS | < -0.25 |
| CAPAILHTRRRKGLQGYIWA | < -0.25 |
| SPGTRGVTKLHS | < -0.25 |

Single values from above.
VCFTLPAMEFIS – growth estimate: < -0.25
KSELDIAEQFDTNTVASGDV – growth estimate: < -0.25
AEFASHSGKRLWASAARTTA – growth estimate: < -0.25
PALATRVQDSQRASVGCA – growth estimate: < -0.25
SGLG – growth estimate: < -0.25
PPT – growth estimate: < -0.25
SPGTRGVTKLHS – growth estimate: < -0.25

Next entries follow.

| Substance | growth estimate |
| --- | --- |
| GDHDR | < -0.25 |
| PDKRSLSSCGYLFGYGGSLD | < -0.25 |
| SSRSWG | < -0.25 |
| QWCLRHNVASIGWIRCGICG | < -0.25 |
| SQIWGLDSRVRSSFRRRALV | < -0.25 |
| NGVFGISKLVILLFMTPGAV | < -0.25 |
| HPPTSSGSSQWVHLV | < -0.25 |
| DGATGFEGAVRGSL | < -0.25 |
| LASYANSFHGTYLPFRFPP | < -0.25 |
| LNPQRSQQHGPV | < -0.25 |
| GCLTLCIIRG | < -0.25 |
| HSRS | < -0.25 |
| HFGTIPL | < -0.25 |
| QCKSVPWFPAGRGALWAVTR | < -0.25 |
| YSIPFNTGSHTANGMDKYWA | < -0.25 |
| GPGDANAFSLAVWWSMEDGP | 0.182 |
| EIVVQFSAR | < -0.25 |
| QRGGLPAGRTRGNSLSSRVD | < -0.25 |
| ILCASQMGRSWIGQIQIFSL | < -0.25 |
| HWCQTANGVSYRVMCFLKPG | < -0.25 |
| VGRR | < -0.25 |
| EVLPVGVTIDLRLHPCRRDH | < -0.25 |
| TPCQASITLLGPRTSGPRVH | < -0.25 |

| Substance | growth estimate |
| --- | --- |
| GRPERSARV | < -0.25 |
| TVEGVRGG | < -0.25 |
| QCKKGVARDAKEHSIFIFAP | < -0.25 |
| NYLEAKEQNGALVGPQVSSR | < -0.25 |
| VSYPFQVRGRTIPAKAKPAI | < -0.25 |
| RINWPYVFRRLWALSTGNFV | < -0.25 |
| QVRLSSNLVRGQFGVHECNH | < -0.25 |
| GRIRM | < -0.25 |
| HAFFSSMGRRTAIPHSPVQR | -0.243 |
| KHC | < -0.25 |
| SMIVVRLRESVIEQSQRRFR | < -0.25 |
| SGENYSTGPKRFFLALTRFS | < -0.25 |
| AKDGYGDADELCGGGWVVIA | -0.222 |
| HSCGRASHVRTLVSQLLGPV | < -0.25 |
| KGLYYPENNRGHGLSAFVAA | < -0.25 |
| RHYLSTR | < -0.25 |
| VLTSFIKLVLCHHA | < -0.25 |
| VHGS | < -0.25 |
| SWGSLQTACL | -0.241 |
| FRQA | < -0.25 |
| HLLGIGERG | < -0.25 |
| MDWGLVLGY | < -0.25 |
